Measurements reported in PubChem BioAssay AID1259308 (NCATS, 2017)
Purpose: 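Knock-downs that increase output of a recombinant reporter protein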 (primary screen). System: human HEK293 embryonic kidney cells stably expressing firefly luciferase (HEK-CMV-Luc2-Hygro). Knock-down reagent: single siRNA against human genes, 0.8 pmol siRNA per well. Time to read-out: 72 h. Read-out: 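Reporter luminescence and viable-cell signal on separate replicate plates, given as percent of non-targeting control and median/MAD z-scores, plus per-cell luciferase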. Reading the numbers: total luciferase, z-score: higher = more reporter protein produced. Call rule: 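An siRNA counts as active if its total luciferase robust z-score exceeds 3; genes with two or more such siRNAs out of three were retested with fresh siRNAs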. Calls: active = raised luciferase; inactive = no rise.
This is one part, drawn at random, of about 59,000 reagents tested. About 1,510 of all reagents (2.6%) count as active. 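Calls use total luciferase alone and ignore viability, so some active siRNAs may act by altering cell number.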 The numbers tell different reagents against one gene apart. Not all columns of the deposit are shown.

KRT28 (keratin 28) #1 gave total luciferase, z-score -0.883; inactive.
Depletion of KRT28 (keratin 28) #2 resulted in: total luciferase, z-score 0.181; inactive.
After knock-down of KRT28 (keratin 28) #3, the screen gave total luciferase, z-score -0.273; inactive.
Knock-down of SLC3A1 #1 came out at: total luciferase, z-score -0.742; inactive.
After knock-down of SLC3A1 #2, the screen gave total luciferase, z-score 0.142; inactive.
Against SLC3A1 #3, the entry reads total luciferase, z-score -0.282; inactive.
For CUTA (cutA divalent cation tolerance homolog) #1 the deposit lists total luciferase, z-score -0.641; inactive.
Depletion of CUTA (cutA divalent cation tolerance homolog) #2 gave: total luciferase, z-score 0.617; inactive.
CUTA (cutA divalent cation tolerance homolog) #3 gave total luciferase, z-score 0.096; inactive.
SLC51B (SLC51 subunit beta) #1 gave total luciferase, z-score 5.22; active.
Knock-down of SLC51B (SLC51 subunit beta) #2 came out at: total luciferase, z-score 1.17; inactive.
For SLC51B (SLC51 subunit beta) #3, the entry reads total luciferase, z-score -0.265; inactive.
Against BUD31 (BUD31 spliceosome associated protein) #1, the values are total luciferase, z-score -2.21; inactive.
BUD31 (BUD31 spliceosome associated protein) #2 showed total luciferase, z-score -0.54; inactive.
For BUD31 (BUD31 spliceosome associated protein) #3, the values are total luciferase, z-score 0.403; inactive.
Knock-down of ERBB3 (erb-b2 receptor tyrosine kinase 3) #1 came out at: total luciferase, z-score 0.514; inactive.
ERBB3 (erb-b2 receptor tyrosine kinase 3) #2 gave total luciferase, z-score -0.162; inactive.
After knock-down of ERBB3 (erb-b2 receptor tyrosine kinase 3) #3, the screen gave total luciferase, z-score 1; inactive.
NMD3P1 (NMD3 ribosome export adaptor pseudogene 1) #1 showed total luciferase, z-score 1.11; inactive.
With knock-down of NMD3P1 (NMD3 ribosome export adaptor pseudogene 1) #2 the results were total luciferase, z-score 0.0897; inactive.
Depletion of NMD3P1 (NMD3 ribosome export adaptor pseudogene 1) #3 came out at: total luciferase, z-score 0.573; inactive.

Entries listed so far whose gene name starts with B or b (3):
BUD31 (BUD31 spliceosome associated protein) #1 → total luciferase, z-score: -2.21; call: inactive
BUD31 (BUD31 spliceosome associated protein) #2 → total luciferase, z-score: -0.54; call: inactive
BUD31 (BUD31 spliceosome associated protein) #3 → total luciferase, z-score: 0.403; call: inactive

Further records:
With knock-down of TMEM14DP (transmembrane protein 14D, pseudogene) #1, the screen gave total luciferase, z-score 1.29; inactive.
TMEM14DP (transmembrane protein 14D, pseudogene) #2 gave total luciferase, z-score -1.4; inactive.
Against TMEM14DP (transmembrane protein 14D, pseudogene) #3, the values are total luciferase, z-score 1.08; inactive.
Against HPN (hepsin) #1 the deposit lists total luciferase, z-score 2.73; inactive.
For HPN (hepsin) #2, the values are total luciferase, z-score -1.74; inactive.
For HPN (hepsin) #3 the deposit lists total luciferase, z-score -0.338; inactive.
After knock-down of TRPC4AP #1, the record shows total luciferase, z-score -0.182; inactive.
Knock-down of TRPC4AP #2 gave: total luciferase, z-score -0.246; inactive.
TRPC4AP #3 showed total luciferase, z-score 0.535; inactive.
PBDC1 (polysaccharide biosynthesis domain containing 1) #1 scored total luciferase, z-score -0.564; inactive.
PBDC1 (polysaccharide biosynthesis domain containing 1) #2 showed total luciferase, z-score -1.14; inactive.
PBDC1 (polysaccharide biosynthesis domain containing 1) #3 showed total luciferase, z-score -0.696; inactive.
After knock-down of KRTAP7-1 (keratin associated protein 7-1) #1, the record shows total luciferase, z-score 1.08; inactive.
For KRTAP7-1 (keratin associated protein 7-1) #2, the entry reads total luciferase, z-score -0.427; inactive.
KRTAP7-1 (keratin associated protein 7-1) #3 showed total luciferase, z-score 0.259; inactive.
Against KRTAP9-4 (keratin associated protein 9-4) #1 the deposit lists total luciferase, z-score 0.328; inactive.
After knock-down of KRTAP9-4 (keratin associated protein 9-4) #2, the screen gave total luciferase, z-score 0.492; inactive.
KRTAP9-4 (keratin associated protein 9-4) #3 scored total luciferase, z-score -1.49; inactive.
EMP2 (epithelial membrane protein 2) #1 gave total luciferase, z-score 1.51; inactive.
For EMP2 (epithelial membrane protein 2) #2, the values are total luciferase, z-score -0.137; inactive.
EMP2 (epithelial membrane protein 2) #3 showed total luciferase, z-score -0.585; inactive.
